For the experiment, the target named is PTEN-induced putative kinase 1 (PINK1) (mouse (endogenous in murine chondrocytes)) (UniProt Q99MQ3). The experiment is described as follows: co-IP; endogenous proteins in chondrocyte lysate; 1 µg purified antibody overnight at 4 °C, Protein A-agarose, six washes with 1X IP buffer, Western blot; cells wild-type, Pink1 knockout or PINK1-overexpressing; which protein was precipitated is not told. On the technique in general: Immunoblotting shows a protein as a band on a membrane.

Sequences of proteins named here, by UniProt entry; tags and fusion partners are left off.
UniProt Q99MQ3: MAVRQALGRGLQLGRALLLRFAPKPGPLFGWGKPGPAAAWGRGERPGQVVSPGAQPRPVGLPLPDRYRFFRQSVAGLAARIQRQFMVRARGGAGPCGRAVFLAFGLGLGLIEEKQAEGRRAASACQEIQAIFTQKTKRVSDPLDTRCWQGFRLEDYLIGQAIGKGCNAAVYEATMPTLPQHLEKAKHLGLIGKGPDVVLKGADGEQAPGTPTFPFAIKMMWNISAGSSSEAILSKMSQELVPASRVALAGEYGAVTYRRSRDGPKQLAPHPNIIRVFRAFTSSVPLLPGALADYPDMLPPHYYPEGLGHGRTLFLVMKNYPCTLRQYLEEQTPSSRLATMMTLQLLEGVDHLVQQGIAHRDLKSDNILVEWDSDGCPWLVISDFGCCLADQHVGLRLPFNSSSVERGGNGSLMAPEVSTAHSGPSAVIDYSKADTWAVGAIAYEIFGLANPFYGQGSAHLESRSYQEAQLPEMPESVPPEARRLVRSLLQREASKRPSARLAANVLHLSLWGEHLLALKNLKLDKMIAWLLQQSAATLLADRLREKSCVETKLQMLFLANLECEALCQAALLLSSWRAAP
UniProt P52480: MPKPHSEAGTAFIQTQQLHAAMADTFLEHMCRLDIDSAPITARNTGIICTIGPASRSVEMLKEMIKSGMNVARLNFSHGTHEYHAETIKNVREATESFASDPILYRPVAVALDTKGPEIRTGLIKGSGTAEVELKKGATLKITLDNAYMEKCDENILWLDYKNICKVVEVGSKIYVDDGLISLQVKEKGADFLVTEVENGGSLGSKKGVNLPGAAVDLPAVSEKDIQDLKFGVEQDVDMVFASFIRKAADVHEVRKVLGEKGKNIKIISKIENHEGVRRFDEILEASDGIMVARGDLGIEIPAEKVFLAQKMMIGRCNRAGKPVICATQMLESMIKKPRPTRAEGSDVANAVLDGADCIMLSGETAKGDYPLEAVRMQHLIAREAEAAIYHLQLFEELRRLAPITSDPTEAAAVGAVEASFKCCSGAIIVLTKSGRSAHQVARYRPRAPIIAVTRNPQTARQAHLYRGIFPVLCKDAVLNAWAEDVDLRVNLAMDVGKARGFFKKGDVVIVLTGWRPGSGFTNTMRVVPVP

These are yes or no findings as the source states them, for the method shown. In cells and extracts the contact can be indirect. Some results given as binding are weak or reduced against the parent protein; the word gives no strength.

For 1 substance, binding results are on record in PMC11909255.

For “Pyruvate kinase M2 (PKM2) (from UniProt P52480 1-531) (enzyme)”, the binding entry is listed as “binds”.
